For part of these data: Weaker means in comparison with the reference protein, sequence or condition of that experiment. For part of these data: The exact form of at least one protein or probe is not confirmed. For part of these data: Negatives hold for the conditions tested.
How the values were obtained:
Nurr1 [1] = molecular target: Nurr1 (UniProt Q06219); experiment: binding assay; settings: greater affinity than POMC Nur-RE; data not shown, method not stated
NOR1 [2] = molecular target: NOR1 (UniProt P51179); experiment: binding assay; settings: greater affinity than POMC Nur-RE; data not shown, method not stated
Nurr1 [3] = molecular target: Nurr1 (UniProt Q06219); experiment: activity in cells; settings: single-copy luciferase reporter, L cells, protein in cells, protein details: RSV-LTR expression plasmid, only the site is given
NOR1 [4] = molecular target: NOR1 (UniProt P51179); experiment: activity in cells; settings: single-copy luciferase reporter, L cells, protein in cells, protein details: RSV-LTR expression plasmid, only the site is given
Nur77 = Nur77 (UniProt P12813); experiment: activity in cells; settings: luciferase reporter, protein in cells, protein details: expression plasmid (pCMX or RSV-LTR), only the site is given
c-jun = experiment: EMSA; settings: protein translated in vitro; protein details: Promega TNT; label: 3'-end label (Klenow)
[5] = stronger than NBRE, synergy with other Nur members

Amino acid sequences for entries named in this document (tags omitted). A change or cut given only in a name is not applied to a line headed by its entry.
UniProt Q06219, whole entry: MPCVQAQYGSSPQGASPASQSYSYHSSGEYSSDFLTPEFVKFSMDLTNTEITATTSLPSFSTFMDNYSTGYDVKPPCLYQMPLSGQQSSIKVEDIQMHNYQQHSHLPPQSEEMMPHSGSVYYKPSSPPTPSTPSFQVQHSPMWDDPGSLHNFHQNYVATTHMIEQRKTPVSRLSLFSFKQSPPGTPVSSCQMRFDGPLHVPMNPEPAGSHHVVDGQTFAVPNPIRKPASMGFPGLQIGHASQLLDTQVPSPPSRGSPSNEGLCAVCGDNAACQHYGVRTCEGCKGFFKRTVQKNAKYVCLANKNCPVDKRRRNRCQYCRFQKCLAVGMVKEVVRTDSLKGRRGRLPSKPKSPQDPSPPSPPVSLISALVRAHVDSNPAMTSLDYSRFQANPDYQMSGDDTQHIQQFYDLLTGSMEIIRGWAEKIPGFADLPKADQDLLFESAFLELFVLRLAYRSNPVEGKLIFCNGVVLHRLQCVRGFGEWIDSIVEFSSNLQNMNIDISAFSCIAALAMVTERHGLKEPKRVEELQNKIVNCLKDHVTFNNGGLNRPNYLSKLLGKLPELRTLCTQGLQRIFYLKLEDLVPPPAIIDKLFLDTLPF
UniProt P51179: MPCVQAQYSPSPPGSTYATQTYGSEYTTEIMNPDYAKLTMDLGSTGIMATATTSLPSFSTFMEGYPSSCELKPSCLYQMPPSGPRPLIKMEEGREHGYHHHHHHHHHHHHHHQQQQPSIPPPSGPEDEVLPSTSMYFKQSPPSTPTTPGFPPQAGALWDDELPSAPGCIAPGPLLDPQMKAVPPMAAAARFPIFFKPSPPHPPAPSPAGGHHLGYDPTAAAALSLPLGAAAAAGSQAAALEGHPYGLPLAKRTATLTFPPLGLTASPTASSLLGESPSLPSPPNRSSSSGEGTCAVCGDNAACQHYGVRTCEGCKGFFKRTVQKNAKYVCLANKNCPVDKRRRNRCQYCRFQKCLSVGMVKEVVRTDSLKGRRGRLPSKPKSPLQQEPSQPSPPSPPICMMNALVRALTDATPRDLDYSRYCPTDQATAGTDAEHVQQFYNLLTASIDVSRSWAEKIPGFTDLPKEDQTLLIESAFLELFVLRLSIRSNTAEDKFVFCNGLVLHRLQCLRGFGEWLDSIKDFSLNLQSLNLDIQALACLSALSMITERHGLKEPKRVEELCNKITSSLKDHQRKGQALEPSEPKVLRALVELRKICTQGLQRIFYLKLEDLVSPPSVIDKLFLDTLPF
UniProt P12813, whole entry: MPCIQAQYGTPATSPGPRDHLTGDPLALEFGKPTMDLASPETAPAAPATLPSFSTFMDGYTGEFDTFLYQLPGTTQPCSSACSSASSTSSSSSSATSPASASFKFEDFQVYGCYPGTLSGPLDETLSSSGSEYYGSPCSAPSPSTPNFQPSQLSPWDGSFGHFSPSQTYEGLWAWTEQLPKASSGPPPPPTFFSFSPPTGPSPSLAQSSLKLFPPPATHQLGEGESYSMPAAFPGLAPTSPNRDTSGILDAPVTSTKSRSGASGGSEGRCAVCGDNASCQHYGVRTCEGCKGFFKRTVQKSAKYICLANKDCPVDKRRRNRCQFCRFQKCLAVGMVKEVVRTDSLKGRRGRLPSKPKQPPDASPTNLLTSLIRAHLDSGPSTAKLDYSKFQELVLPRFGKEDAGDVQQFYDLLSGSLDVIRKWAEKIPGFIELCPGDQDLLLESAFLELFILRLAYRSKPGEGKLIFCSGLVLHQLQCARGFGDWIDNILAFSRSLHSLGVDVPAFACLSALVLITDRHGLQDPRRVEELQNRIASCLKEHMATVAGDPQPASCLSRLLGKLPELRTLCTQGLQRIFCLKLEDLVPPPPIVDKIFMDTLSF

TGACCTTTATTCTCAAAGGTCA (double strand) [perfect palindromic Nur-RE]
binding result (Nurr1 [1]): binds | binding result (NOR1 [2]): binds

GATCCTAGTGATATTTACCTCCAAATGCCAGGA (double strand) [NurRE (POMC)]
activity on this sequence (Nurr1 [3]; [5]): active | activity on this sequence (NOR1 [4]; [5]): active | activity on this sequence (Nur77; AtT-20 and L cells, trimer at least 40 times more responsive than NBRE): active | binding result (c-jun): no binding

GATCCTCGTGCGAAAAGGTCAAGCGCTA (double strand) [NBRE]
activity on this sequence (Nurr1 [3]; weaker activation than Nur-RE): less active | activity on this sequence (NOR1 [4]; weaker activation than Nur-RE): less active | activity on this sequence (Nur77; at least 40-fold less responsive than Nur-RE trimer in AtT-20): less active

Reference: patent US6852538B1, “Nur-RE a response element which binds nur nuclear receptors and method of use therefor” (Institut de Recherches Cliniques de Montreal, priority 1996, dated 2005)
